Assay results as given in patent US10869931B2, “Polyethylene glycol-modified angiogenesis inhibitor HM-1 and application thereof” (NANJING ANJI BIOLOGICAL TECHNOLOGY CO.,LTD, priority 2016, dated 2020).
This continues a long series; more values of the same kind are listed elsewhere.

Tested on: carrageenan-induced toe swelling in SD rats
Assay: Carrageenan-induced acute toe swelling in rats
Assay type: in vivo, rat
Design: unit not given here
Procedure: SD rats were divided into blank model group, dexamethasone-positive group (5 mg/kg) and mPEG-HM-1 test group. The drug was administered once a day, and the model group was given the same volume of normal saline for 3 days and fed normally. At the first hour after the last administration, 0.1 mL of 1% carrageenan was injected subcutaneously into the right hind paw of the rats to induce inflammation. The volume of the foot was measured at 1 h, 3 h, 5 h, and 7 h after inflammation. The degree of swelling of the foot was calculated according to the following formula: the degree of swelling of the foot (mL)=the volume of the foot after inflammation−the volume before inflammation. Record the number of milliliters of spilled liquid (method: use the ballpoint pen to circle as the measurement mark at the protruding point of the right joint, and then put the right hind foot of each mouse into the volume measuring device, so that the hind limb is exposed outside the cylinder, and the depth of the immersion was determined by coinciding the circle with the liquid surface. After the foot enters the liquid, the liquid level rises, and the volume of the overflow liquid is the volume of the right hind foot of the rat, and the normal volume of the right hind foot of each mouse is sequentially determined).

[1] = 20 mg/kg once a day for 3 days, 1 h after carrageenan
[2] = 20 mg/kg once a day for 3 days, 3 h after carrageenan
[3] = 20 mg/kg once a day for 3 days, 5 h after carrageenan
[4] = 20 mg/kg once a day for 3 days, 7 h after carrageenan
[5] = 80 mg/kg once a day for 3 days, 1 h after carrageenan
[6] = 80 mg/kg once a day for 3 days, 3 h after carrageenan
[7] = 80 mg/kg once a day for 3 days, 5 h after carrageenan
[8] = 80 mg/kg once a day for 3 days, 7 h after carrageenan

| Substance | Swelling (10 mg/kg once a day for 3 days, 1 h after carrageenan) | Swelling (10 mg/kg once a day for 3 days, 3 h after carrageenan) | Swelling (10 mg/kg once a day for 3 days, 5 h after carrageenan) | Swelling (10 mg/kg once a day for 3 days, 7 h after carrageenan) | Swelling [1] | Swelling [2] | Swelling [3] | Swelling [4] | Swelling (40 mg/kg once a day for 3 days, 1 h after carrageenan) | Swelling (40 mg/kg once a day for 3 days, 3 h after carrageenan) | Swelling (40 mg/kg once a day for 3 days, 5 h after carrageenan) | Swelling (40 mg/kg once a day for 3 days, 7 h after carrageenan) | Swelling [5] | Swelling [6] | Swelling [7] | Swelling [8] | Swelling (160 mg/kg once a day for 3 days, 1 h after carrageenan) | Swelling (160 mg/kg once a day for 3 days, 3 h after carrageenan) | Swelling (160 mg/kg once a day for 3 days, 5 h after carrageenan) | Swelling (160 mg/kg once a day for 3 days, 7 h after carrageenan) |
| --- | --- | --- | --- | --- | --- | --- | --- | --- | --- | --- | --- | --- | --- | --- | --- | --- | --- | --- | --- | --- |
| mPEG-bALD5k-Arg-Gly-Ala-Asp-Arg-Ala-Gly-Gly-Gly-Gly-Arg-Gly-Asp (RGADRAGGGGRGD; mPEG-butyraldehyde 5 kDa; printed: Arg-Gly-Ala-Asp-Arg-Ala-Gly-Gly-Gly-Gly-Arg-Gly-Asp) [mPEG-bALD5k-HM-1] | 0.23 ± 0.11 | 0.34 ± 0.12 | 0.40 ± 0.14 | 0.32 ± 0.11 | 0.22 ± 0.13 | 0.33 ± 0.18 | 0.36 ± 0.15 | 0.34 ± 0.12 | – | – | – | – | – | – | – | – | – | – | – | – |
| mPEG-bALD10k-Arg-Gly-Ala-Asp-Arg-Ala-Gly-Gly-Gly-Gly-Arg-Gly-Asp (RGADRAGGGGRGD; mPEG-butyraldehyde 10 kDa; printed: Arg-Gly-Ala-Asp-Arg-Ala-Gly-Gly-Gly-Gly-Arg-Gly-Asp) [mPEG-bALD10k-HM-1] | – | – | – | – | 0.22 ± 0.14 | 0.32 ± 0.15 | 0.41 ± 0.17 | 0.31 ± 0.12 | 0.20 ± 0.12 | 0.32 ± 0.22 | 0.38 ± 0.14 | 0.32 ± 0.11 | – | – | – | – | – | – | – | – |
| mPEG-bALD20k-Arg-Gly-Ala-Asp-Arg-Ala-Gly-Gly-Gly-Gly-Arg-Gly-Asp (RGADRAGGGGRGD; mPEG-butyraldehyde 20 kDa; printed: Arg-Gly-Ala-Asp-Arg-Ala-Gly-Gly-Gly-Gly-Arg-Gly-Asp) [mPEG-bALD20k-HM-1] | – | – | – | – | – | – | – | – | – | – | – | – | 0.27 ± 0.11 | 0.34 ± 0.10 | 0.41 ± 0.12 | 0.33 ± 0.17 | – | – | – | – |
| mPEG-bALD40k-Arg-Gly-Ala-Asp-Arg-Ala-Gly-Gly-Gly-Gly-Arg-Gly-Asp (RGADRAGGGGRGD; mPEG-butyraldehyde 40 kDa; printed: Arg-Gly-Ala-Asp-Arg-Ala-Gly-Gly-Gly-Gly-Arg-Gly-Asp) [mPEG-bALD40k-HM-1] | – | – | – | – | – | – | – | – | – | – | – | – | 0.28 ± 0.15 | 0.33 ± 0.12 | 0.45 ± 0.16 | 0.37 ± 0.18 | 0.25 ± 0.12 | 0.36 ± 0.13 | 0.46 ± 0.17 | 0.36 ± 0.19 |
